The text below walks through data of PubChem BioAssay AID2685 (National Center for Advancing Translational Sciences (NCATS), 2010).

This experiment can be described thus: qHTS Assay for Lipid Storage Modulators in Drosophila S3 Cells.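 As to cell number change: cells counted by Cell Tracker Red CMTPX staining in the red channel.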 The note with it: BODIPY lipid droplet fluorescence, 18-24 h; for cell number change: measured here: cell count max response, cells fed with added oleic acid. Summed up: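 Drosophila S3 cells got compounds at several concentrations plus oleic acid (400 uM solution). Laser-scanning cytometry with 488 nm excitation read lipid droplets at 500-530 nm and cells at 575-640 nm. Percent activity was relative to 20 uM Triacsin C.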
A general note: Quantitative high-throughput screening tests each substance at several concentrations.

The mark [1] stands for this setting: measured here: lipid fluorescence (Fed channel) AC50, cells fed with added oleic acid.
[2] abbreviates: measured here: cell number channel AC50, cells fed with added oleic acid.

The structures appear in SMILES notation. Some of the results follow. Further columns of the screen follow, without active or inactive calls. The list favours compounds with an active or inconclusive main result. The note in brackets gives the kind of curve behind each potency; many fits are weak.

Take `COc1ccc(/C(C)=N/NC(=O)CNC(=O)/C=C/c2ccccc2OC)cc1`: the cell number change was found to be 15.3%.

For the molecule `CCOC(=O)N1CCN(S(=O)(=O)c2c(C)nc3sccn3c2=O)CC1`, the AC50 under setting [1] was 1.64 µM [falling, partial curve, poor fit].

Turning to `Cc1onc(-c2c(Cl)cccc2Cl)c1C(=O)N/N=C(\N)COc1ccc(Cl)cc1`, the cell number change was -57.5%. Moreover, the half-maximal activity concentration (AC50) under setting [2] is 29.1 µM [falling, single point]. Further, the AC50 under setting [1] was 29.1 µM [falling, single point].

As to `Cc1ccc(S(=O)(=O)N(CC(O)CN2C(=O)NC(C)(C)C2=O)c2cccc(C)c2)cc1` (configuration not stated), the cell number change amounted to 14%. Also, under setting [2], the AC50 was 1.46 µM [rising, partial curve, poor fit].

As for `Cc1ccc(C(=O)NCC(=O)N2CCN(c3ncccn3)CC2)s1`, the cell number change worked out at 74.1%. Also, under setting [2], the AC50 is 18.4 µM [rising, partial curve]. Further, under setting [1], the AC50 is 0.291 µM [rising, full curve].

Consider `O=C(CN1C(=O)NC2(CCc3ccccc3C2)C1=O)NCC(F)(F)F` (configuration not stated), for which the cell number change was determined as 6.94%.

As for `CC12CCC(C(=O)N3CCC(Cc4ccccc4)CC3)(C(=O)C1=O)C2(C)C` (configuration not stated), the cell number change came out at 28.5%. Further, the concentration at half-maximal activity (AC50) under setting [1] is 18.4 µM [rising, single point].

Take `CCOC(=O)c1ccccc1N/C=C1\CCCC1=O`: the cell number change was -27.8%.

As to `COc1ccc(-n2c(SCCC(=O)O)nnc2-c2ccncc2)cc1`, the cell number change was determined as 62.2%. The AC50 under setting [2] is 7.31 µM [rising, partial curve]. Besides, under setting [1], the AC50 is 3.66 µM [rising, single point].

With `Cc1ccc(OCC(=O)NCc2cccs2)c([N+](=O)[O-])n1`, the AC50 by setting is: under setting [2], 4.11 µM [falling, single point]; under setting [1], 4.61 µM [falling, single point].

As for `COc1ccc(OC)c(CNC(=O)CCc2nc(-c3cccs3)no2)c1`, the cell number change was 4.47%. Besides, the AC50 under setting [2] was 6.51 µM [rising, single point]. Besides, the AC50 under setting [1] was 4.11 µM [rising, full curve].

As for `O=C(/C=C/c1ccc(S(=O)(=O)N2CCOCC2)cc1)N1CCN(c2ccc(F)cc2)CC1`, the cell number change was -18.4%.

As to `Cc1occc1-c1nnc(SCC(=O)c2ccc(F)cc2)n1Cc1ccco1`, the cell number change is -5.32%. Further, the AC50 under setting [1] was 18.4 µM [rising, single point].

Consider `CCOC(=O)c1nnn(-c2nonc2N)c1-c1ccc(OC)cc1`, for which the cell number change came out at 75.3%. In addition, under setting [2], the AC50 is 8.2 µM [rising, partial curve]. For the same molecule, the AC50 under setting [1] is 5.17 µM [rising, partial curve].

Turning to `Cc1ccc(S(=O)(=O)N(C)c2ccc(C(=O)Nc3cccc(C)n3)cc2)cc1`, the cell number change is -15.8%.

With `Cc1ccc(CSc2nnc(-c3ccccc3N)c(=O)[nH]2)cc1`, the half-maximal activity concentration (AC50) under setting [2] is 6.51 µM [rising, single point].

As for `COc1ccc(OC)c(C(=O)COC(=O)C2CC3CCCC(C2)C3=O)c1` (configuration not stated), the cell number change is -56.7%. Further, the AC50 under setting [2] was 29.1 µM [falling, single point]. Moreover, under setting [1], the AC50 is 2.59 µM [falling, partial curve].

For `Cc1cc(C)nc(Nc2n[nH]c(-c3ccccc3C)n2)n1`, the cell number change is 13.4%.

For `O=C(CSc1nc(Nc2ccccc2)nc(N2CCOCC2)n1)Nc1cccc([N+](=O)[O-])c1`, the cell number change is -3.47%. The AC50 under setting [1] was 0.411 µM [rising, partial curve].

For the molecule `O=C(COc1ccc(Cl)cc1)NCC(=O)N1CCC2(CC1)NCCc1[nH]cnc12`, the cell number change came to 39.6%. For the same molecule, under setting [2], the AC50 was 23.1 µM [rising, single point].

In the case of `Cc1ccc(-c2nn(CCC(=O)O)cc2CCC(=O)O)cc1`, the cell number change was 1.84%. Also, under setting [2], the AC50 is 0.0058 µM [falling, full curve, poor fit]. Under setting [1], the AC50 is 1.16 µM [falling, full curve].

As for `COc1ccc(S(=O)(=O)Nc2ccc3c(c2)OCO3)cc1C`, the cell number change worked out at 123%. The AC50 under setting [2] is 3.66 µM [rising, partial curve]. Besides, the AC50 under setting [1] is 7.31 µM [rising, partial curve].

Consider `CCOC(=O)c1cc2c(ccn2-c2ccc(F)cc2)n1CC(=O)NC(C)(C)C`, for which the cell number change was -66.7%. Also, the AC50 under setting [2] is 2.31 µM [falling, full curve]. Moreover, the half-maximal activity concentration (AC50) under setting [1] is 1.84 µM [falling, full curve].

Turning to `Cc1cc(N)c2cc(NC(=O)/C=C/c3ccccc3Cl)ccc2n1`, the cell number change is -47%. The AC50 under setting [2] is 23.1 µM [falling, single point]. The concentration at half-maximal activity (AC50) under setting [1] is 18.4 µM [falling, single point].

Consider `CCc1ccccc1NC(=O)C1CCN(C(=O)N2CCOc3ccccc32)CC1`, for which the cell number change worked out at 35.4%. Also, the AC50 under setting [2] is 1.3 µM [rising, full curve, poor fit]. Also, the AC50 under setting [1] was 29.1 µM [rising, single point].

Turning to `Cc1cc2ncn(C(=O)N3CCOCC3)c2cc1C`, the cell number change is -138%. Moreover, the AC50 under setting [2] is 29.1 µM [falling, partial curve]. Also, under setting [1], the AC50 is 18.4 µM [falling, partial curve].

For `CCCCNC(=O)C1CCN(Cc2ccccn2)CC1`, the cell number change is -4.61%. Under setting [1], the AC50 is 5.8 µM [rising, single point].

Regarding `COc1ccc(CNC(=O)CCNC(=O)c2ccco2)cc1OC`, the cell number change is -2.5%. Also, the AC50 under setting [2] is 0.103 µM [falling, full curve, poor fit].

Regarding `Cc1csc(SCc2nc3scc(-c4ccccc4)c3c(=O)[nH]2)n1`, the AC50 under setting [2] was 0.517 µM [falling, partial curve].

Regarding `COC(=O)c1ccc(NC(=O)COC(=O)C2=NN(c3ccccc3)C(=O)CC2)cc1`, the cell number change is -5.23%. Moreover, the AC50 under setting [1] is 0.461 µM [falling, single point].

Consider `CCOc1ccc(-c2nnc(SCC(=O)O)n2Cc2ccccc2)cc1`, for which the cell number change is -9.85%.

For the molecule `C/C(=N\NC(=O)c1cc(C)oc1C)c1ccc(C)c([N+](=O)[O-])c1`, the cell number change was -4.81%. Also, the AC50 under setting [1] was 4.61 µM [rising, full curve, poor fit].

With `COc1ccc(CCNC(=O)c2cccnc2)cc1`, the cell number change came out at 40.6%. Also, the AC50 under setting [2] is 1.46 µM [rising, partial curve]. For the same molecule, the AC50 under setting [1] is 0.0326 µM [rising, full curve, poor fit].

In the case of `CCN(c1ccccc1)S(=O)(=O)c1nnc(NC(=O)C(C)(C)C)s1`, the cell number change is -12%.

On to `CC(C)CCOC(=O)C(C)Sc1n[nH]c(=O)[nH]c1=O` (configuration not stated), for which the cell number change amounted to 20.4%.

`CCCCNC(=O)OC1CCS(=O)(=O)C1` (configuration not stated): the cell number change was -11.8%. Moreover, the AC50 under setting [1] is 3.66 µM [falling, full curve, poor fit].

For the molecule `Cn1nccc1C(=O)Nc1ccc2c(c1)OCCO2`, the cell number change was found to be 20.7%.

For the molecule `COc1ccc(/C=C\C(=O)NCc2ccc3[nH]c(C)cc3c2)cc1OC`, the cell number change is -56.5%. Under setting [2], the AC50 was 13 µM [falling, partial curve]. Under setting [1], the AC50 was 18.4 µM [falling, partial curve].

In general, AC50 refers to the midpoint of the concentration-response curve, whichever way the signal moves. A lower AC50 goes with activity at low concentration.
